Article PMC7950127
Results are given in words; binding and its absence hold for the method and conditions named. In cells and extracts the contact can be indirect. These calls come from enrichment with a bait or labelling near it, and not all partners need be listed.

By UniProt entry, the sequences of proteins in these tests, tags left out. Where a name states a change or a piece, a line headed by the entry shows the natural chain unless it says otherwise.
UniProt Q83BS7: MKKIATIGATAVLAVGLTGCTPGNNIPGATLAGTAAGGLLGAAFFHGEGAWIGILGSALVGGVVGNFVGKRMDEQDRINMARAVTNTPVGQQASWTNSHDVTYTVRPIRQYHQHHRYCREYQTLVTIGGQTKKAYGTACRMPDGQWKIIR
UniProt Q15388: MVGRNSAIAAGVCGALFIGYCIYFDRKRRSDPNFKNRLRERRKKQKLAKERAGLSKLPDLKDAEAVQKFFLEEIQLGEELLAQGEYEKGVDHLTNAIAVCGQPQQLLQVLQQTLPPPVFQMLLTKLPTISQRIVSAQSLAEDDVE

Biological target: Mitochondrial Coxiella effector protein C (MceC, CBU1425) with C-terminal 3XFLAG (Coxiella burnetii) (UniProt Q83BS7)
Assay: affinity purification with mass spectrometry

Q: “TOM20 (from UniProt Q15388 1-145) (receptor)” was tested. Which binding did it give?
A: binds

B1: TOM40 (protein, UniProt O96008 1-361)
chain: MGNVLAASSPPAGPPPPPAPALVGLPPPPPSPPGFTLPPLGGSLGAGTSTSRSSERTPGAATASASGAAEDGACGCLPNPGTFEECHRKCKELFPIQMEGVKLTVNKGLSNHFQVNHTVALSTIGESNYHFGVTYVGTKQLSPTEAFPVLVGDMDNSGSLNAQVIHQLGPGLRSKMAIQTQQSKFVNWQVDGEYRGSDFTAAVTLGNPDVLVGSGILVAHYLQSITPCLALGGELVYHRRPGEEGTVMSLAGKYTLNNWLATVTLGQAGMHATYYHKASDQLQVGVEFEASTRMQDTSVSFGYQLDLPKANLLFKGSVDSNWIVGATLEKKLPPLPLTLALGAFLNHRKNKFQCGFGLTIG
Q: How did the binding turn out when B1 was run?
A: binds

B2: SCO2 (protein, UniProt O43819 42-266)
chain: GPAETGGQGQPQGPGLRTRLLITGLFGAGLGGAWLALRAEKERLQQQKRTEALRQAAVGQGDFHLLDHRGRARCKADFRGQWVLMYFGFTHCPDICPDELEKLVQVVRQLEAEPGLPPVQPVFITVDPERDDVEAMARYVQDFHPRLLGLTGSTKQVAQASHSYRVYYNAGPKDEDQDYIVDHSIAIYLLNPDGLFTDYYGRSRSAEQISDSVRRHMAAFRSVLS
Q: For B2, which binding is on record?
A: binds
